The list shows a part of the results.
Tested on: T1, CTL2-GFP (C. trachomatis L2/434/Bu, GFP-expressing)
T1 construct: L2/434/Bu, GFP-expressing
Design: species or system HeLa; Intracellular C. trachomatis growth in HeLa cells, bulk GFP fluorescence relative to DMSO
Settings: bulk GFP, single well; 28.5 h, 10 µM; inhibitor

| Compound | % of control remaining |
| --- | --- |
| N#Cc1cnccc1N1CC2COCCC2(C(=O)N2CCCC2)C1 (stereo not shown) [CBK304731] | 110.589% |
| COc1ccc(S(=O)(=O)N2CCN(CCN3C(=O)c4cccc5cccc(c45)C3=O)CC2)cc1[N+](=O)[O-] [CBK263301] | 126.347% |
| CCn1c(=O)n(CC(=O)N2CCCCC2C)c2cccnc21 (stereo not shown) [CBK283896] | 84.089% |
| FC(F)(F)Oc1ccc(-c2c[nH]c([C@@H]3COCCN3C3CCNCC3)n2)cc1 [CBK289312] | 169.002% |
| CCOc1ccc(S(=O)(=O)NC(C)C(=O)O)cc1C (stereo not shown) [CBK270178] | 73.5627% |
| O=C1NC2(CCN(C(=O)c3ccccc3F)CC2)Oc2ccccc21 [CBK283997] | 137.288% |
| Cc1cc(=O)n(CC(=O)NC(Cc2ccncc2)[C@H]2C[C@H](O)C2)nc1C (stereo partly shown) [CBK306641] | 172.913% |
| COc1ccc2cc3c(nc2c1)Sc1nncn1N=C3 [CBK021248] | 125.037% |
| NS(=O)(=O)c1ccc(CCNC=C2C(=O)c3ccccc3C2=O)cc1 [CBK262997] | 100% |
| Cc1cc(C(F)(F)F)nc(SCC(=O)N2c3ccccc3Sc3ccccc32)n1 [CBK268078] | 76.1861% |
| Cc1csc2c(C3CCN(C(=O)C4CC4)CC3)nc(C)n12 [CBK285241] | 130.576% |
| CCc1c(C)sc(NC(=O)c2ccc(Br)o2)c1C#N [CBK021662] | 100% |
| Cc1ccc2oc([C@H]3CCN(S(C)(=O)=O)C3)nc2c1 [CBK289371] | 143.035% |
| CCCC/C=C/c1nccnc1N[C@@H](C)c1ccccc1 [CBK037138] | 140.862% |
| CCOc1ccc(-n2c(SCC(=O)Nc3cc(C(=O)O)ccc3Cl)nc3ccccc3c2=O)cc1 [CBK297512] | 107.702% |
| CC(=O)Nc1cccc(-n2nnnc2SCC(=O)N2CCNC2=O)c1 [CBK305043] | 102.158% |
| COCc1cccc(-c2nccnc2OC)c1 [CBK106956] | 158.855% |
| OCC1CCCN1c1nccnc1-c1cccs1 (stereo not shown) [CBK089060] | 105.002% |
| CC(C)(C)c1nnc2sc(-c3cccnc3)nn12 [CBK287289] | 104.772% |
| O=C(Oc1ccc(/C=N/c2ccc(-c3nc4ccccc4s3)c(O)c2)cc1)c1ccc(Cl)cc1 [CBK261234] | 100% |
| NC(=O)C1(N2CCCCC2)CCN(C(=S)Nc2ccc(F)c(Cl)c2)CC1 [CBK267165] | 190.095% |
| CC(C)CN1CCC(NC(=O)c2csc(-c3cnn(C)c3)n2)CC1 [CBK305790] | 100.849% |

3 compounds from above, arranged by molar mass, ascending.

| Compound | % of control remaining |
| --- | --- |
| COc1ccc2cc3c(nc2c1)Sc1nncn1N=C3 [CBK021248] | 125.037% |
| Cc1cc(=O)n(CC(=O)NC(Cc2ccncc2)[C@H]2C[C@H](O)C2)nc1C (stereo partly shown) [CBK306641] | 172.913% |
| COc1ccc(S(=O)(=O)N2CCN(CCN3C(=O)c4cccc5cccc(c45)C3=O)CC2)cc1[N+](=O)[O-] [CBK263301] | 126.347% |
